Data as given in PubChem BioAssay AID652259 (Drosophila RNAi Screening Center, 2013)
The screen tested about 22,000 reagents; shown is an unselected part of those that have a named target and a result. In the full data, 233 (1.1%) got an active call. 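Light values are raw, unnormalised plate reads; the ratio scores behind the reporter calls were not deposited.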 Names joined by + are all predicted targets of the reagent. Not stated in the record: the amount of reagent, the time to read-out, the dose of the treatment.

Screen: 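Identify new Wingless signalling regulators in fly cells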 (primary screen)
Cell system: Drosophila clone 8 imaginal disc epithelial cells
Reagents: long dsRNA against Drosophila genes
Treatment: pathway stimulated by co-transfected Wingless expression plasmid
Detection: 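Dual luciferase reads per well after Wingless plasmid stimulation: reporter firefly light and Renilla control light; activity is firefly divided by Renilla, a ratio not deposited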
Direction: firefly reporter light: higher = more Wg reporter light, before normalisation; Renilla control light: higher = more transfected or surviving cells
Hit rule: 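a knock-down is a candidate when at least two out of four statistical tests show it departing from its plate mean; one test alone signals a weak candidate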
Meaning of the calls: active = candidate regulator (raises or lowers reporter); inactive = not a candidate

Gene	dsRNA	reporter change call, replicate 1	firefly reporter light, replicate 1	firefly reporter light, replicate 2	Renilla control light, replicate 1	Renilla control light, replicate 2	Call
mod(mdg4) + pre-mod(mdg4)-Z + pre-mod(mdg4)-T	DRSC13477		1828		1001		inactive
mod(mdg4) + pre-mod(mdg4)-Z + pre-mod(mdg4)-T	DRSC17001		38872		7761		inactive
CG13786	DRSC02289		2914	6137	840	2502	inactive
CG18605	DRSC06772		8820		2455		inactive
CG14401	DRSC02385		3757	9856	1297	3961	inactive
CG14401	DRSC21710		7.70e5	7.88e5	2.64e5	2.88e5	inactive
nrm (neuromusculin)	DRSC11597		2125		845		inactive
nrm (neuromusculin)	DRSC11599		3525		1200		inactive
nrm (neuromusculin)	DRSC11897		15333		4962		inactive
Ccm3 (Cerebral cavernous malformation 3)	DRSC15711		17507		3493		inactive
CG15117	DRSC06539		13376		3488		inactive
Cpr30F (Cuticular protein 30F)	DRSC02908		12613		2089		inactive
att-ORFB + DPCoAC	DRSC15556		19968		3499		inactive
Eglp4 (Entomoglyceroporin 4)	DRSC04438		3024	5792	819	2610	inactive
Rsph9 (Radial spoke head protein 9)	DRSC01594		11620		11120		inactive
Eig71Ei	DRSC11156		10145		4516		inactive
CG14546	DRSC14890		16785		15216		inactive
CG11674	DRSC19414		1584	7482	954	2579	inactive
beat-IIa (beaten path IIa)	DRSC14813		16268		4744		inactive
beat-IIa (beaten path IIa)	DRSC14814		10870		2215		inactive
Sara (Smad anchor for receptor activation)	DRSC04653		1707	5315	834	1942	inactive
CG42390	DRSC15866	Wg reporter activity raised	4579	7920	569	1136	inactive
Bet5 (Blocked early in transport 5)	DRSC14600		9573		3493		inactive
CG13982	DRSC02314		1984	3602	912	896	inactive
CG13081	DRSC02185		2038	5786	502	2055	inactive
cpa (capping protein alpha)	DRSC04080		7672		2245		inactive
Mppe (Metallophosphoesterase)	DRSC07296		6128		2192		inactive
CG42471	DRSC01210		20541		10307		inactive
Odj (Oddjob)	DRSC16234		4021	6294	1911	2179	inactive
CG4955	DRSC19927		3248	6410	1325	2560	inactive
OtopLb (Otopetrin-like b)	DRSC00594		10875		2843		inactive
bru1 (bruno 1)	DRSC01234		20656		4736		inactive
bru1 (bruno 1)	DRSC01236		16473		5095		inactive
bru1 (bruno 1)	DRSC01237		17900		8576		inactive
bru1 (bruno 1)	DRSC01238		23437		9717		inactive
bru1 (bruno 1)	DRSC03485		10040		2160		inactive
alt (aluminum tubes)	DRSC15315		6992	11272	924	1453	inactive
CG31125	DRSC13684		3527		1760		inactive
elm (ethanol sensitive with low memory)	DRSC12309		6859		2185		inactive
CG32536 + CG32537	DRSC20074		25959		1248		inactive
CG7333	DRSC16229		17204		4592		inactive
Oat (Ornithine aminotransferase precursor)	DRSC11043		4522		2198		inactive
side (sidestep)	DRSC14523		10285	7.18e5	4115	3.22e5	inactive
side (sidestep)	DRSC14716		9559		3467		inactive
side (sidestep)	DRSC14717		7293		3339		inactive
side (sidestep)	DRSC14718		6832		3287		inactive
side (sidestep)	DRSC14721		12848		4208		inactive
Sce (Sex combs extra)	DRSC16825		3020	8468	1072	1719	inactive
CG33489	DRSC10588		8496		3029		inactive
CG4286	DRSC04459		2482	8503	512	2448	inactive
CG33017	DRSC06573		5696		2240		inactive
CG33017	DRSC06574		7284		2883		inactive
CG14219	DRSC19576		18533		7353		inactive
TyrRS (Tyrosyl-tRNA synthetase)	DRSC10430		5740		1988		inactive
PIG-H + Kmn2	DRSC12653		3429		1280		inactive
Chmp1 (Charged multivesicular body protein 1)	DRSC10401		5062		1427		inactive
Cp16 (Chorion protein 16)	DRSC11119		1171	9193	912	3767	inactive
CG11368	DRSC17778		16277		8328		inactive
CCHa2 (CCHamide-2)	DRSC14835		16178	6.96e5	3472	3.36e5	inactive
ND-13B (NADH dehydrogenase (ubiquinone) 13 kDa B subunit)	DRSC10643		7323		2252		inactive
CG3792	DRSC02725		2068	5465	780	2072	inactive
Pez	DRSC03397		1607	8144	416	2715	inactive
Cyp311a1 (Cytochrome P450 311a1)	DRSC20239		21172		11861		inactive
CG8149	DRSC16391		10768		2733		inactive
CG15443	DRSC00455		2504	8935	755	2729	inactive
CG15283	DRSC01980		2903	8429	1218	3557	inactive
Tgi (Tondu-domain-containing Growth Inhibitor)	DRSC09793		5484		2756		inactive
Tgi (Tondu-domain-containing Growth Inhibitor)	DRSC09794		7296		2240		inactive
CG13042	DRSC09923		10362		3768		inactive
wap (wings apart)	DRSC20626		3812	8054	1193	2784	inactive
CG13862	DRSC14712		35360		6272		inactive
Frq1 (Frequenin 1)	DRSC19961		22280		9748		inactive
Or67a (Odorant receptor 67a)	DRSC11240		5941		2833		inactive

Part of the list above, reformatted:
Gene,dsRNA,"reporter change call, replicate 1","firefly reporter light, replicate 1","firefly reporter light, replicate 2","Renilla control light, replicate 1","Renilla control light, replicate 2",Call
OtopLb (Otopetrin-like b),DRSC00594,,10875,,2843,,inactive
bru1 (bruno 1),DRSC01234,,20656,,4736,,inactive
bru1 (bruno 1),DRSC01236,,16473,,5095,,inactive
bru1 (bruno 1),DRSC01237,,17900,,8576,,inactive
bru1 (bruno 1),DRSC01238,,23437,,9717,,inactive
bru1 (bruno 1),DRSC03485,,10040,,2160,,inactive
alt (aluminum tubes),DRSC15315,,6992,11272,924,1453,inactive
CG31125,DRSC13684,,3527,,1760,,inactive
elm (ethanol sensitive with low memory),DRSC12309,,6859,,2185,,inactive
CG32536 + CG32537,DRSC20074,,25959,,1248,,inactive
